# Test results from the supplement of paper PMC8728848.
# The list shows a part of the results.
# B1: GS13971A-bth-447-22-447 (Bacteroides thetaiotaomicron) (protein)
# chain: EDVDNERSKGMFSASQSGFSTIEVYDLGPLNKIDLSIAKAGLEDTGGTVTFSVEQSLLDSLNNADGTSYQLLPPECYTIENATYSVSPGGDRRVTGGSLVYDPHKIYNLCGFDELKYVLPLRVSSTGTPMNSDRTATLYGFIVKEAIVRLASTGGDFVVEGGTTTSPMNLDTEISFENEWDLTTSFATKGADYVDNYNSANSTYYIPLPSDFYTLPDVTIAKGKTTGGSAISLLGETLPPGNYLLPVSLGGLSGQGDASINIDKETVANYFVIKQGGPINRDHWTVTANTEEKTGEVSAAYPHNGQTISLIDGEINTFWHSKWQGGEVAPPYEIILDMGKENSVSQLGLIARQNALTSMNLEIYAGDDGETWNLIGKYFFDGSIKTEQMVPVKACDARWIRIYIPTLGSGSSVGHLAEIYVYGTDK
# Key:
# Assay in all cases: glycan array binding signal (z-score within array); higher = stronger binding
# Conditions in all cases: glycan notation: IUPAC condensed, linker removed
# [1] = biological target: GalNAc3S(b1-4)[Fuc(a1-3)]GlcNAc
# Method in brief: (§1)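 The Consortium for Functional Glycomics database supplied 3228 glycan arrays, of which those lacking an available protein sequence were dropped. The binding signal, a within-array Z-score, was averaged across arrays of the same protein sequence and across linkers. Negative scores can be read as non-binding.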
# GalNAc4S6S(b1-4)GlcNAc = biological target: GalNAc4S6S(b1-4)GlcNAc
# Method in brief: as §1
# GalNAc6S(b1-4)GlcNAc = biological target: GalNAc6S(b1-4)GlcNAc
# Method in brief: as §1
# Glc(a1-4)Glc = biological target: Glc(a1-4)Glc
# Method in brief: as §1
# [2] = biological target: Glc(a1-4)Glc(a1-4)Glc(a1-4)Glc
# Method in brief: as §1
# Glc(a1-6)Glc(a1-6)Glc = biological target: Glc(a1-6)Glc(a1-6)Glc
# Method in brief: as §1
# [3] = biological target: Glc(a1-6)Glc(a1-6)Glc(a1-6)Glc
# Method in brief: as §1
# Glc(b1-4)Glc = biological target: Glc(b1-4)Glc
# Method in brief: as §1
# Glc(b1-6)Glc = biological target: Glc(b1-6)Glc
# Method in brief: as §1
# GlcA(b1-3)Gal = biological target: GlcA(b1-3)Gal
# Method in brief: as §1
# GlcA(b1-3)GlcNAc = biological target: GlcA(b1-3)GlcNAc
# Method in brief: as §1
# GlcA(b1-6)Gal = biological target: GlcA(b1-6)Gal
# Method in brief: as §1
# [4] = biological target: GlcA3S(b1-3)Gal(b1-4)GlcNAc(b1-2)Man
# Method in brief: as §1
# [5] = biological target: GlcA3S(b1-3)Gal(b1-4)GlcNAc(b1-3)Gal(b1-4)Glc
# Method in brief: as §1
# [6] = biological target: GlcNAc(a1-3)Gal(b1-4)GlcNAc
# Method in brief: as §1
# [7] = biological target: GlcNAc(a1-4)Gal(b1-3)GlcNAc
# Method in brief: as §1
# [8] = biological target: GlcNAc(a1-4)Gal(b1-4)GalNAc
# Method in brief: as §1
# [9] = biological target: GlcNAc(a1-4)Gal(b1-4)GlcNAc
# Method in brief: as §1
# [10] = biological target: GlcNAc(a1-4)Gal(b1-4)GlcNAc(b1-3)Gal(b1-4)Glc
# Method in brief: as §1
# [11] = biological target: GlcNAc(a1-4)Gal(b1-4)GlcNAc(b1-3)Gal(b1-4)GlcNAc
# Method in brief: as §1
# [12] = biological target: GlcNAc(a1-4)Gal(b1-4)GlcNAc(b1-3)Gal(b1-4)GlcNAc(b1-3)Gal(b1-4)GlcNAc
# Method in brief: as §1
# [13] = biological target: GlcNAc(a1-4)Gal(b1-4)GlcNAc(b1-3)Gal(b1-4)[Fuc(a1-3)]GlcNAc(b1-3)Gal(b1-4)[Fuc(a1-3)]GlcNAc
# Method in brief: as §1
# [14] = biological target: GlcNAc(a1-6)Gal(b1-4)GlcNAc
# Method in brief: as §1
# [15] = biological target: GlcNAc(b1-2)Gal(b1-3)GalNAc
# Method in brief: as §1
# [16] = biological target: GlcNAc(b1-2)Man(a1-3)[GlcNAc(b1-2)Man(a1-6)]Man(b1-4)GlcNAc(b1-4)GlcNAc
# Method in brief: as §1
# [17] = biological target: GlcNAc(b1-2)Man(a1-3)[GlcNAc(b1-2)Man(a1-6)]Man(b1-4)GlcNAc(b1-4)[Fuc(a1-6)]GlcNAc
# Method in brief: as §1
# [18] = biological target: GlcNAc(b1-2)Man(a1-3)[GlcNAc(b1-4)][GlcNAc(b1-2)Man(a1-6)]Man(b1-4)GlcNAc(b1-4)GlcNAc
# Method in brief: as §1
# [19] = biological target: GlcNAc(b1-2)Man(a1-3)[GlcNAc(b1-4)][GlcNAc(b1-2)Man(a1-6)]Man(b1-4)GlcNAc(b1-4)[Fuc(a1-6)]GlcNAc
# Method in brief: as §1
# [20] = biological target: GlcNAc(b1-2)[GlcNAc(b1-4)]Man(a1-3)[GlcNAc(b1-2)Man(a1-6)]Man(b1-4)GlcNAc(b1-4)GlcNAc
# Method in brief: as §1
# [21] = biological target: GlcNAc(b1-2)[GlcNAc(b1-4)]Man(a1-3)[GlcNAc(b1-4)][GlcNAc(b1-2)Man(a1-6)]Man(b1-4)GlcNAc(b1-4)GlcNAc
# Method in brief: as §1
# [22] = biological target: GlcNAc(b1-2)[GlcNAc(b1-4)]Man(a1-3)[GlcNAc(b1-4)][GlcNAc(b1-2)[GlcNAc(b1-6)]Man(a1-6)]Man(b1-4)GlcNAc(b1-4)GlcNAc
# Method in brief: as §1
# [23] = biological target: GlcNAc(b1-2)[GlcNAc(b1-4)]Man(a1-3)[GlcNAc(b1-4)][GlcNAc(b1-2)[GlcNAc(b1-6)]Man(a1-6)]Man(b1-4)GlcNAc(b1-4)[Fuc(a1-6)]GlcNAc
# Method in brief: as §1
# [24] = biological target: GlcNAc(b1-2)[GlcNAc(b1-6)]Man(a1-6)[GlcNAc(b1-2)Man(a1-3)]Man(b1-4)GlcNAc(b1-4)GlcNAc
# Method in brief: as §1
# [25] = biological target: GlcNAc(b1-2)[GlcNAc(b1-6)]Man(a1-6)[GlcNAc(b1-2)Man(a1-3)]Man(b1-4)GlcNAc(b1-4)[Fuc(a1-6)]GlcNAc
# Method in brief: as §1
# [26] = biological target: GlcNAc(b1-2)[GlcNAc(b1-6)]Man(a1-6)[GlcNAc(b1-4)][GlcNAc(b1-2)Man(a1-3)]Man(b1-4)GlcNAc(b1-4)GlcNAc
# Method in brief: as §1
# GlcNAc(b1-3)Fuc = biological target: GlcNAc(b1-3)Fuc
# Method in brief: as §1
# GlcNAc(b1-3)Gal = biological target: GlcNAc(b1-3)Gal
# Method in brief: as §1
# [27] = biological target: GlcNAc(b1-3)Gal(b1-3)GalNAc
# Method in brief: as §1
binder,measurement,setting,value
B1,glycan array binding signal (z-score),[1],0.092
same,glycan array binding signal (z-score),GalNAc4S6S(b1-4)GlcNAc,-0.217
same,glycan array binding signal (z-score),GalNAc6S(b1-4)GlcNAc,-1.49
same,glycan array binding signal (z-score),Glc(a1-4)Glc,-0.043
same,glycan array binding signal (z-score),[2],-0.815
same,glycan array binding signal (z-score),Glc(a1-6)Glc(a1-6)Glc,-0.45
same,glycan array binding signal (z-score),[3],0.028
same,glycan array binding signal (z-score),Glc(b1-4)Glc,-1.23
same,glycan array binding signal (z-score),Glc(b1-6)Glc,1.14
same,glycan array binding signal (z-score),GlcA(b1-3)Gal,-0.637
same,glycan array binding signal (z-score),GlcA(b1-3)GlcNAc,-0.782
same,glycan array binding signal (z-score),GlcA(b1-6)Gal,0.382
same,glycan array binding signal (z-score),[4],-0.506
same,glycan array binding signal (z-score),[5],-0.995
same,glycan array binding signal (z-score),[6],-0.748
same,glycan array binding signal (z-score),[7],-1.29
same,glycan array binding signal (z-score),[8],-0.687
same,glycan array binding signal (z-score),[9],-0.929
same,glycan array binding signal (z-score),[10],-0.676
same,glycan array binding signal (z-score),[11],-0.834
same,glycan array binding signal (z-score),[12],0.801
same,glycan array binding signal (z-score),[13],1.77
same,glycan array binding signal (z-score),[14],0.967
same,glycan array binding signal (z-score),[15],-0.633
same,glycan array binding signal (z-score),[16],-0.257
same,glycan array binding signal (z-score),[17],1.39
same,glycan array binding signal (z-score),[18],-0.881
same,glycan array binding signal (z-score),[19],0.422
same,glycan array binding signal (z-score),[20],-1.32
same,glycan array binding signal (z-score),[21],1.48
same,glycan array binding signal (z-score),[22],-0.139
same,glycan array binding signal (z-score),[23],-0.86
same,glycan array binding signal (z-score),[24],0.703
same,glycan array binding signal (z-score),[25],-0.506
same,glycan array binding signal (z-score),[26],0.411
same,glycan array binding signal (z-score),GlcNAc(b1-3)Fuc,-0.602
same,glycan array binding signal (z-score),GlcNAc(b1-3)Gal,-0.615
same,glycan array binding signal (z-score),[27],0.382

# A second format for some results above.
binder | measurement | setting | value
B1 | glycan array binding signal (z-score) | GalNAc6S(b1-4)GlcNAc | -1.49
same | glycan array binding signal (z-score) | Glc(b1-4)Glc | -1.23
same | glycan array binding signal (z-score) | GlcA(b1-3)GlcNAc | -0.782
same | glycan array binding signal (z-score) | [4] | -0.506
same | glycan array binding signal (z-score) | [8] | -0.687
same | glycan array binding signal (z-score) | [14] | 0.967
same | glycan array binding signal (z-score) | [18] | -0.881
same | glycan array binding signal (z-score) | [26] | 0.411
same | glycan array binding signal (z-score) | GlcNAc(b1-3)Gal | -0.615
same | glycan array binding signal (z-score) | [27] | 0.382
